# From PMC3909575, “Purification and characterization of an extracellular laccase from solid-state culture of Pleurotus ostreatus HP-1” (3 Biotech, 2013)
# Test system: T1, laccase
# T1 construct: purified native extracellular laccase from strain HP-1, 68,420 Da
# Assay: steady-state oxidation kinetics (Km, Lineweaver-Burk)
# Type: biochemical, Pleurotus ostreatus
smiles,measurement,value
"CCn1c(=NN=c2sc3cc(S(=O)(=O)O)ccc3n2CC)sc2cc(S(=O)(=O)O)ccc21 [ABTS, 2,2′-azino-bis-3-ethyl-benzthiazoline-6-sulphonic acid]",Km,46.5 mM
COc1ccccc1O [Guaiacol],Km,100 mM
COc1cc(-c2ccc(N)c(OC)c2)ccc1N [O-dianisidine],Km,23.5 mM
